{
  "sequences": {"note": "The chains behind the UniProt entries cited, without tags or fusion partners.", "UniProt P21554": "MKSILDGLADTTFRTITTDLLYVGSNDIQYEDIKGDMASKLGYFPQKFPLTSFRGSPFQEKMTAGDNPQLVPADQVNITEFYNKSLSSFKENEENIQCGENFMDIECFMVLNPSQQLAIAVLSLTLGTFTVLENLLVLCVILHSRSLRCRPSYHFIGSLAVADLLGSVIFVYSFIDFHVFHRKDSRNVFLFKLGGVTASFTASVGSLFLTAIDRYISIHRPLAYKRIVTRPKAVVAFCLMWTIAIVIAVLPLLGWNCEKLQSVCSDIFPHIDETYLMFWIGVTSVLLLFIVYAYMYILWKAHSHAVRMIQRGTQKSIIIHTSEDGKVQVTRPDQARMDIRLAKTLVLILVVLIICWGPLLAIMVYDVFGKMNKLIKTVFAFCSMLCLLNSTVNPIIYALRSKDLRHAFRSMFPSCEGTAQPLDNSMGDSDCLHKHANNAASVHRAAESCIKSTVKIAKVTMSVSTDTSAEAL", "UniProt P35626": "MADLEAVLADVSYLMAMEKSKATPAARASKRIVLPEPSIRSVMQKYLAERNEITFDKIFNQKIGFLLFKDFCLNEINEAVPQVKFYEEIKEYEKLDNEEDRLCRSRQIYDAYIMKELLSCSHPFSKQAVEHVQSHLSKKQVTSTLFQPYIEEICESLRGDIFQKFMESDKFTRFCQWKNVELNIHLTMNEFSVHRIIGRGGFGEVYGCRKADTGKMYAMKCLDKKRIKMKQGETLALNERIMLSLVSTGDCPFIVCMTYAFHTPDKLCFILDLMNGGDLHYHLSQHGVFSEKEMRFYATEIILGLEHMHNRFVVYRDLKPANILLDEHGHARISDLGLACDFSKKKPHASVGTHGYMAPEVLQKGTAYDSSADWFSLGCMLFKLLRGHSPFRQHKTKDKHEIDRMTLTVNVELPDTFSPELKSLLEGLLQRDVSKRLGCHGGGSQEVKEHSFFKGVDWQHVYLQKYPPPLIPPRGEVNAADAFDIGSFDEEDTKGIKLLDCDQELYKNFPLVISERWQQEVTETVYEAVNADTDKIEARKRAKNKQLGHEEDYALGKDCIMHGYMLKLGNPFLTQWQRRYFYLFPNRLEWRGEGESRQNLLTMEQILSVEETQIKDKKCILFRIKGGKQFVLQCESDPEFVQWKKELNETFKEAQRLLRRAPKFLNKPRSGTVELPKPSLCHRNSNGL", "UniProt P32121": "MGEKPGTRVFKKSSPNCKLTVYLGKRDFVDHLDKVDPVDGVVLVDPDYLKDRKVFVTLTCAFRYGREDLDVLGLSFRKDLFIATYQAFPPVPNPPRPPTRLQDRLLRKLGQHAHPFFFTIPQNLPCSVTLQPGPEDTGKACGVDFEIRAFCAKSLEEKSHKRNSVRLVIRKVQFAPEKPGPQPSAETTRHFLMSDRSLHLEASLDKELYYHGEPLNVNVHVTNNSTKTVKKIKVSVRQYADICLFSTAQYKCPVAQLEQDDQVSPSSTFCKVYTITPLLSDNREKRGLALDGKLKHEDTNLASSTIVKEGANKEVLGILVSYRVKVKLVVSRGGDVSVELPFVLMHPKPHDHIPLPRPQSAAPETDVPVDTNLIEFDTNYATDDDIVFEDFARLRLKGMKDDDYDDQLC"},
  "source": "paper PMC11035541",
  "biological_target": "cannabinoid receptor 1 fused to EYFP (CB1R-EYFP) (UniProt P21554)",
  "test": "FRET or BRET; living HEK293 cells co-transfected with GRK3-Rluc8 or β-arrestin2-Rluc (donor) and CB1R-EYFP (acceptor), 1:2; Tyrode's solution pH 7.4, 37 °C; 5 µM coelenterazine h; increasing concentrations of (9S)-HHC, (9R)-HHC or WIN; read 12 min after addition; ΔBRET against vehicle",
  "note": "Results are given in words; binding and its absence hold for the method and conditions named. In cells and extracts the contact can be indirect. Some results given as binding are weak or reduced against the parent protein; the word gives no strength.",
  "data": [
    {"substance": "G protein-coupled receptor kinase 3 fused to Rluc8 (GRK3-Rluc8) (from UniProt P35626 1-688) (enzyme)", "values": [
      {"measurement": "binding", "value": "binds"}
    ]},
    {"substance": "β-arrestin2 fused to Rluc (β-arrestin2-Rluc) (from UniProt P32121 1-409)", "values": [
      {"measurement": "binding", "value": "binds"}
    ]}
  ]
}
